Experimental data published in the supplement of paper PMC6331611.
± gives the standard deviation of the averaged measurements. The full ranking holds about 1,600 compounds; the median of “normalized intracellular growth (luminescence, IQM-normalized) in RAW264.7 macrophages” is about 1, and the lowest 2% start at about 0.43. The list shows a part of the results.

System: Salmonella enterica serovar Typhimurium SL1344
Assay: normalized intracellular growth (luminescence, IQM-normalized) in RAW264.7 macrophages (fraction of plate interquartile mean); higher = more bacterial growth (less inhibition)
Conditions: 10 µM

Compound	normalized intracellular growth (time point: T3 (3 h))	normalized intracellular growth (time point: Tfinal (~6 h))
c1ccc(CN(CC2=NCCN2)c2ccccc2)cc1	0.992 ± 0.011	0.982 ± 0.055
COc1cc(/C=C/C(=O)N2CCCCCCC2)cc(OC)c1OC	1.08 ± 0.016	0.924 ± 0.085
CNC(=N)NCCC[C@H](N)C(=O)O	1.11 ± 0.029	0.921 ± 0.26
Cc1cc(-c2ccc(/N=N/c3ccc4c(S(=O)(=O)O)cc(S(=O)(=O)O)c(N)c4c3O)c(C)c2)ccc1/N=N/c1ccc2c(S(=O)(=O)O)cc(S(=O)(=O)O)c(N)c2c1O	1.06 ± 0.038	1.36 ± 0.084
C=CCSCC1Nc2cc(Cl)c(S(N)(=O)=O)cc2S(=O)(=O)N1 (configuration not stated)	1.07 ± 0.037	1.08 ± 0.043
O=C(/C=C/C=C/c1ccc2c(c1)OCO2)N1CCCCC1	1.04 ± 0.069	0.974 ± 0.05
CCC(=O)OCC(=O)[C@@]1(OC(=O)CC)[C@@H](C)C[C@H]2[C@@H]3CCC4=CC(=O)C=C[C@]4(C)[C@@]3(Cl)[C@@H](O)C[C@@]21C	0.976 ± 0.026	0.962 ± 0.086
CCN(CC)Cc1cc(Nc2ccnc3cc(Cl)ccc23)ccc1O	0.983 ± 0.033	1.1 ± 0.075
COc1ccccc1N1CCN(CCCNc2cc(=O)n(C)c(=O)n2C)CC1	0.98 ± 0.024	0.983 ± 0.23
CC(C)NCC(O)c1cc(O)cc(O)c1 (configuration not stated)	1.06 ± 0.025	0.981 ± 0.077
O=C(O)CN(CCN(CC(=O)O)CC(=O)O)CCN(CC(=O)O)CC(=O)O	1.11 ± 0.05	1.04 ± 0.039
C#CCN(C)CCCOc1ccc(Cl)cc1Cl	1.06 ± 0.13	1.18 ± 0.096
C[n+]1ccccc1/C=N/O	1.04 ± 0.036	0.938 ± 0.23
Cc1cccc(Nc2ccccc2C(=O)O)c1C	0.984 ± 0.05	1.03 ± 0.097
CCC(C)n1ncn(-c2ccc(N3CCN(c4ccc(OCC5COC(Cn6cncn6)(c6ccc(Cl)cc6Cl)O5)cc4)CC3)cc2)c1=O (configuration not stated)	1 ± 0.06	1.12 ± 0.11
O=C(O)CCNC(=O)c1ccc(/N=N/c2ccc(O)c(C(=O)O)c2)cc1	0.986 ± 0.04	0.804 ± 0.092
C[C@H]1[C@H](OC(=O)CCC(=O)O)O[C@@H]2O[C@@]3(C)CC[C@H]4[C@H](C)CC[C@@H]1[C@@]24OO3	0.899 ± 0.045	0.869 ± 0.028
CC(N)C(=O)OC(C)(C)Cc1ccc(Cl)cc1 (configuration not stated)	1.15 ± 0.072	1.46 ± 0.051
CC[n+]1c(-c2ccccc2)c2cc(N)ccc2c2ccc(N)cc21	0.993 ± 0.05	1.13 ± 0.11
O=C1OC(CN2CCOCC2)CN1/N=C/c1ccc([N+](=O)[O-])o1 (configuration not stated)	1.08 ± 0.1	0.97 ± 0.43
CNCCCN1c2ccccc2CCc2ccccc21	1.075 ± 0.0098	1.04 ± 0.061
O=C1CCC(N2C(=O)c3ccccc3C2=O)C(=O)N1 (configuration not stated)	0.966 ± 0.11	1.21 ± 0.21
CC(=O)OCC1=C(C(=O)O)N2C(=O)[C@@H](NC(=O)Cc3cccs3)[C@H]2SC1	0.979 ± 0.037	1.01 ± 0.027

13 entries from above in another layout:
Compound,normalized intracellular growth (time point: T3 (3 h)),normalized intracellular growth (time point: Tfinal (~6 h))
CNC(=N)NCCC[C@H](N)C(=O)O,1.11 ± 0.029,0.921 ± 0.26
Cc1cc(-c2ccc(/N=N/c3ccc4c(S(=O)(=O)O)cc(S(=O)(=O)O)c(N)c4c3O)c(C)c2)ccc1/N=N/c1ccc2c(S(=O)(=O)O)cc(S(=O)(=O)O)c(N)c2c1O,1.06 ± 0.038,1.36 ± 0.084
C=CCSCC1Nc2cc(Cl)c(S(N)(=O)=O)cc2S(=O)(=O)N1 (configuration not stated),1.07 ± 0.037,1.08 ± 0.043
CCN(CC)Cc1cc(Nc2ccnc3cc(Cl)ccc23)ccc1O,0.983 ± 0.033,1.1 ± 0.075
COc1ccccc1N1CCN(CCCNc2cc(=O)n(C)c(=O)n2C)CC1,0.98 ± 0.024,0.983 ± 0.23
CC(C)NCC(O)c1cc(O)cc(O)c1 (configuration not stated),1.06 ± 0.025,0.981 ± 0.077
C#CCN(C)CCCOc1ccc(Cl)cc1Cl,1.06 ± 0.13,1.18 ± 0.096
C[n+]1ccccc1/C=N/O,1.04 ± 0.036,0.938 ± 0.23
CCC(C)n1ncn(-c2ccc(N3CCN(c4ccc(OCC5COC(Cn6cncn6)(c6ccc(Cl)cc6Cl)O5)cc4)CC3)cc2)c1=O (configuration not stated),1 ± 0.06,1.12 ± 0.11
C[C@H]1[C@H](OC(=O)CCC(=O)O)O[C@@H]2O[C@@]3(C)CC[C@H]4[C@H](C)CC[C@@H]1[C@@]24OO3,0.899 ± 0.045,0.869 ± 0.028
CC(N)C(=O)OC(C)(C)Cc1ccc(Cl)cc1 (configuration not stated),1.15 ± 0.072,1.46 ± 0.051
CC[n+]1c(-c2ccccc2)c2cc(N)ccc2c2ccc(N)cc21,0.993 ± 0.05,1.13 ± 0.11
O=C1OC(CN2CCOCC2)CN1/N=C/c1ccc([N+](=O)[O-])o1 (configuration not stated),1.08 ± 0.1,0.97 ± 0.43

Next structures

Compound	normalized intracellular growth (time point: T3 (3 h))	normalized intracellular growth (time point: Tfinal (~6 h))
CCOc1ccc(NC(=O)CC(C)O)cc1 (configuration not stated)	0.969 ± 0.045	1.202 ± 0.0076
CCN(CC)CCNC(=O)COc1ccc(OC)cc1	1.04 ± 0.043	0.942 ± 0.14
Cc1nc2n(c(=O)c1CCN1CCC(c3noc4cc(F)ccc34)CC1)CCCC2O (configuration not stated)	0.996 ± 0.04	0.965 ± 0.023
C=CCCCCCCCCC(=O)O	0.9889 ± 0.0075	0.751 ± 0.22
CC1(C)S[C@@H]2[C@H](NC(=O)Cc3ccccc3)C(=O)N2[C@H]1C(=O)O	0.828 ± 0.13	1.35 ± 0.094
CCCCc1nc(Cl)c(CO)n1Cc1ccc(-c2ccccc2-c2nnn[nH]2)cc1	0.909 ± 0.056	0.215 ± 0.0058
Cc1cc2nc3c(=O)[nH]c(=O)nc-3n(CC(O)C(O)C(O)COP(=O)(O)O)c2cc1C (configuration not stated)	0.886 ± 0.064	1.08 ± 0.19
O=C(O)CSCC(=O)NC1CCSC1=O (configuration not stated)	1.06 ± 0.043	0.876 ± 0.14
NCC[C@H](O)C(=O)N[C@@H]1C[C@H](N)[C@@H](O[C@H]2O[C@H](CN)[C@@H](O)[C@H](O)[C@H]2O)[C@H](O)[C@H]1O[C@H]1O[C@H](CO)[C@@H](O)[C@H](N)[C@H]1O	0.99 ± 0.054	0.936 ± 0.045
Fc1ccc([C@@H]2CCNC[C@H]2COc2ccc3c(c2)OCO3)cc1	0.885 ± 0.052	0.978 ± 0.25
Nc1nc(O)c2ncn(CCC(CO)CO)c2n1	0.994 ± 0.012	1.04 ± 0.062
CN(C/C=C/C#CC(C)(C)C)Cc1cccc2ccccc12	1.01 ± 0.042	0.997 ± 0.057
NCCC[C@H](N)CC(=O)N[C@H]1CNC(=O)[C@H]([C@H]2C[C@H](O)NC(N)=N2)NC(=O)/C(=C/NC(N)=O)NC(=O)[C@H](CO)NC(=O)[C@H](CO)NC1=O	1.01 ± 0.093	0.9882 ± 0.0043
NC(CO)C(=O)NNCc1ccc(O)c(O)c1O (configuration not stated)	1 ± 0.013	1.05 ± 0.023
CN(C)CCCN1c2ccccc2CCc2ccccc21	1.02 ± 0.036	1.08 ± 0.019
C[C@H]1COc2c(N3CCN(C)CC3)c(F)cc3c(=O)c(C(=O)O)cn1c23	1.245 ± 0.0094	0.00765 ± 0.001
C[N+](C)(C)CCO.[Cl-]	1.1 ± 0.057	0.985 ± 0.068
CN1CCC(OC(c2ccccc2)c2ccccc2)CC1	1 ± 0.042	1.26 ± 0.073
O=C(Oc1cccc2cccnc12)c1ccccc1	1.06 ± 0.062	0.905 ± 0.078
CC(=O)SCC(Cc1ccccc1)C(=O)NCC(=O)OCc1ccccc1 (configuration not stated)	1.01 ± 0.039	0.954 ± 0.089
COC(=O)C1=C(C)NC(C)=C(C(=O)OC(C)C)C1c1cccc2nonc12 (configuration not stated)	1.07 ± 0.06	1.17 ± 0.028
CN1CCN(c2cc3c(cc2F)c(=O)c(C(=O)O)cn3-c2ccc(F)cc2)CC1	0.634 ± 0.14	0.982 ± 0.093
O=C(O)CCCC[C@@H]1SC[C@@H]2NC(=O)N[C@@H]21	1 ± 0.033	0.954 ± 0.12
